Results deposited as PubChem BioAssay AID504774 (Drosophila RNAi Screening Center, 2011)

Screen: 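Knock-downs that shift viability of MMS-exposed cells relative to untreated ones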 (primary screen)
System: Drosophila Kc167 cells
Reagent: long dsRNA against Drosophila genes, about 0.25 µg dsRNA per well
Timing: about 6 days: 3 days knock-down, then 3 days with or without MMS
Challenge: methyl methanesulphonate 0.004% (w/v) for 3 days after knock-down
Measured: 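Viability in wells given MMS, read as ATP luminescence, normalised by quantiles plate by plate and averaged across replicates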
Direction: mean viability with MMS and viability with MMS: higher = more surviving cells after MMS
In all, the deposit lists about 23,000 reagents; this is a random part of those that have a named target and a result. 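Values are quantile-normalised luminescence on an arbitrary scale; higher means more cells surviving MMS.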 Reagents against one gene are numbered here. Names joined by + are all predicted targets of the reagent. Further read-outs or replicates are left out here. No sequences are given here.

target gene	reagent no.	mean viability with MMS	viability with MMS, replicate 1
Cyp18a1 (Cytochrome P450 18a1)	1	3.47e6	3.94e6
mAChR-A (muscarinic Acetylcholine Receptor, A-type)	1	3.60e6	3.85e6
CG30050	1	3.58e6	4.03e6
Octbeta1R (Octopamine beta1 receptor)	1	3.53e6	4.20e6
CG15019	1	3.44e6	3.81e6
CG32809	1	3.57e6	4.04e6
CG32809	2	3.56e6	4.13e6
CG32809	3	3.50e6	4.03e6
CG15696	1	3.48e6	3.91e6
CG42700	1	2.88e6	3.16e6
CG42700	2	3.66e6	4.24e6
CG42700	3	3.59e6	4.17e6
KP78a + KP78b	1	3.66e6	4.12e6
KP78a + KP78b	2	3.58e6	4.06e6
Actn3 (alpha actinin 3)	1	3.63e6	4.12e6
AstA-R1 (Allatostatin A receptor 1)	1	3.53e6	4.04e6
AstA-R1 (Allatostatin A receptor 1)	2	3.63e6	3.93e6
CG12945	1	3.45e6	3.92e6
CG12118	1	3.50e6	3.96e6
RpL37-2 (Ribosomal protein L37-2)	1	3.48e6	4.05e6
Nopp140	1	3.41e6	3.75e6
CG8924	1	3.21e6	3.43e6
CG8924	2	3.52e6	4.00e6
CG5860	1	3.51e6	3.95e6
CG33060	1	3.68e6	4.13e6
CG12483	1	3.79e6	4.18e6
jhamt (juvenile hormone acid methyltransferase)	1	3.37e6	3.94e6
Ppt1 (Palmitoyl-protein thioesterase 1)	1	3.44e6	3.85e6

3 of these entries, set out differently:
mAChR-A (muscarinic Acetylcholine Receptor, A-type) | mean viability with MMS: 3.60e6; viability with MMS, replicate 1: 3.85e6
CG30050 | mean viability with MMS: 3.58e6; viability with MMS, replicate 1: 4.03e6
Octbeta1R (Octopamine beta1 receptor) | mean viability with MMS: 3.53e6; viability with MMS, replicate 1: 4.20e6
